Measurements from “University of Dundee, Small-Polar-MMV Screening Library” (2021), ChEMBL document CHEMBL3988442.

A: 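Whole-cell assay for inhibitors of Mycobacterium tuberculosis growth, labelled Cornell in the record; the read-out is not stated. The concentration is filed as 10 mM, unlikely as a test dose, so the dose is not known. The record gives no direction; compounds strong in two other growth screens of this library score well above the rest, so higher reads as stronger inhibition. About 53,000 compounds were tested under these conditions; 1.7% (about 900) showed 50% or more at least once.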
B: 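Assay on Mycobacterium tuberculosis, filed only as a heat shock assay from Cornell; the read-out is not stated. The concentration is filed as 10 mM, unlikely as a test dose, so the dose is not known. The record gives no direction; compounds that gave an IC50 in retests scored well above the rest, so higher reads as stronger inhibition. Of about 69,000 compounds tested this way, about 930 (1.4%) reached 50% or more in at least one test.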

Results are given as percent effect.
How 0% and 100% were set is not recorded. Most values in the screen are low, and negative values occur.
This is an unselected part of the compounds tested.

* CC(C)(C)C(O)CCNC(=O)c1ccc(F)cc1Cl (centres unmarked) : A: 5.069%; B: 8.957%
* Cc1ccccc1-n1cc(C2=CCN(CCn3cc[nH]c3=O)CC2)cn1 : A: 11.43%; B: -20.16%
* CCCN1CCC(CNC(=O)C2(c3cccc(C)c3)CC2)C1 (centres unmarked) : A: -20.85%; B: 0.9479%
* O=C(c1ccc(N2CCOCC2)nc1)N1CCCC(n2ccnc2)C1 (centres unmarked) : B: 15.91%
* O=C(O)C1(n2cccn2)CCN(Cc2nc(-c3ccccc3)no2)CC1 : A: -2.031%; B: 11.05%
* CCC(O)CN1CCN(C(=O)c2sccc2OC)CC1 (centres unmarked) : A: 11.03%; B: 17.46%
* CCOC(=O)CN(C)C1CCc2ccccc21 (centres unmarked) : B: -24.77%
* O=C(C(c1ccccc1)S(=O)(=O)c1ccccn1)N1CCCC1 (centres unmarked) : A: 2.486%; B: 20.75%
* COCCN1CC[C@]2(CN(C(=O)c3ccc[nH]3)C[C@H]2C)C1=O : A: 14.18%; B: 6.408%
* O=C(O)C(F)(F)F.O=C(O)C(F)(F)F.[H][C@@]12CCCO[C@]1([H])[C@H](Nc1ccccn1)CN(Cc1cc(C)on1)C2 : A: 28.94%; B: -1.653%
* COc1ncccc1C1CC(=O)Nc2cc(NS(C)(=O)=O)ccc21 (centres unmarked) : A: 22.02%; B: 10.42%
* Cn1c(CN2CCOCC2)cc(=O)c(O)c1CN1CCOCC1 : A: -4.352%; B: 3.719%
* Cc1cc(C(=O)NC2CCc3c(ccc(=O)n3CC3CC3)C2)no1 (centres unmarked) : A: -8.562%; B: 17.49%
* Cc1cc(C2CCCN2Cc2ccn(C)c(=O)c2)on1 (centres unmarked) : B: 6.782%
* c1ccc(CCN2CCCC2c2cccc(Nc3nccs3)n2)cc1 (centres unmarked) : A: 20.07%; B: 104.9%
* Cc1cc2c(cc1C)C(NC1CC1)CCCO2 (centres unmarked) : A: 2.304%; B: -8.851%
* O=C(CCc1cc2n(n1)CCCN(C(=O)c1ccncc1)C2)NC1CC1 : A: 12%; B: 15.15%
* Cc1nnc(SCCC(=O)N(C)Cc2ccc(Cl)s2)[nH]1 : B: 8.759%
* O=C(O)C(F)(F)F.O=C(O)C(F)(F)F.[H][C@@]12CCN(Cc3cnn(C)c3)[C@]1([H])CC[C@H](COCc1cccnc1)O2 : A: 9.317%; B: 7.465%
* COc1cccc(CC(=O)N2CCN(c3cccc(C)c3)C(C)C2)c1 (centres unmarked) : B: -27.02%
* CCc1cc(O)n2nc(C3CCN(C(=O)c4ccccn4)CC3)cc2n1 : A: 37.19%; B: 6.441%
* CNc1ncc2c(n1)CN(Cc1ccc(Cl)cc1)C2=O : A: -12.81%; B: -7.307%
* Cn1ncc2c1CCCC2NCc1cccnc1 (centres unmarked) : A: -26.24%; B: -40.36%
* CC(O)(CN1CCC2(CC1)OCCO2)c1cccc(C(F)(F)F)c1 (centres unmarked) : A: 37.59%; B: 33.73%
* Cl.NCCc1cn(Cc2ccccn2)c2ccccc12 : A: -5.41%; B: 5.806%

The last 2 entries again:

SMILES,A,B
CC(O)(CN1CCC2(CC1)OCCO2)c1cccc(C(F)(F)F)c1 (centres unmarked),37.59,33.73
Cl.NCCc1cn(Cc2ccccn2)c2ccccc12,-5.41,5.806